Measured values taken from patent US20080138847A1, “Bcl-2 family member and BH-3 only proteins for use in development of peptidomimetics” (priority 2004, published 2008).
Results are given in words; binding and its absence hold for the method and conditions named. For part of these data: In cells and extracts the contact can be indirect. Some results given as binding are weak or reduced against the parent protein; the word gives no strength. For part of these data: Sequences can lack the tags named with a protein.

Columns and labels:
[1] = molecular target: T1, CED-9 (construct not stated) (Caenorhabditis elegans, UniProt P41958 1-251, limits assumed); experiment: GST-mediated pull-down, as retold with the displacement assay
T1 construct: Also stands for the worm's own CED-9 in the in vivo rows
T1 sequence (looked up): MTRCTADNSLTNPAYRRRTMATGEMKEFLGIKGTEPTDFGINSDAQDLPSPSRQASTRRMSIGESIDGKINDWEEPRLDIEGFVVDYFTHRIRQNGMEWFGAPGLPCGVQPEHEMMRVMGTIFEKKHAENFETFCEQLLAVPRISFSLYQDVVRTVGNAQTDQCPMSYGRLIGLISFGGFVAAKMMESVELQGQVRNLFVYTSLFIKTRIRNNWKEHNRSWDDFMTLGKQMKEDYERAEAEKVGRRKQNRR

[2] = molecular target: T1, CED-9 (construct not stated); experiment: GST-mediated pull-down
From the text: This example describes the biochemical and functional analysis of EGL-1/CED-9 interactions. To corroborate the structural analysis, mutations on the interface residues of EGL-1 were examined for their potential to weaken or disrupt its binding to CED-9. Various mutant EGL-1 fragments were purified as fusion proteins with glutathione S-transferase (GST) and their interactions with CED-9 were investigated using a GST-mediated pull-down assay. […] Strikingly, substitution of Gly55 by a negatively charged glutamate residue was not sufficient to abolish interaction with CED-9.

[3] = molecular target: T2, CED-9 (residues 68-237) (Caenorhabditis elegans) (UniProt P41958); experiment: binding tests of CED-9 fragments with EGL-1
T2 sequence (looked up): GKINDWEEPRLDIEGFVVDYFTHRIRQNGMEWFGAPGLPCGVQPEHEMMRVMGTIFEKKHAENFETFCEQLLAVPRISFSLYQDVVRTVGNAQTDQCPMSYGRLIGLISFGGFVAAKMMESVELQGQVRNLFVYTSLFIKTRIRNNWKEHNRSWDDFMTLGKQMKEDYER

Binder	binding [1]	binding [2]	binding [3]
SEISSIGYEIGSKAAAMCDDFDAQMMSYSAHASDRSLFHRLLD (peptide, UniProt O61667 60-102, looked up, not shown: a dimerising Fc or GST) [GST-EGL-1 fragment L58A]	binds	binds	
EGL-1 (construct not stated) (protein, Caenorhabditis elegans, UniProt O61667 16-106, looked up) MSNVFDVQSSVFYNEKNMFYSSSQDFSSCEDSSQFADDSGFFDDSEISSIGYEIGSKLAAMCDDFDAQMMSYSAHASDRSLFHRLLDFFAF			binds
